# Results published in patent US20090233858A1.
# Chains of the proteins cited; added tags and fusions are not shown. Lines headed by an entry give the natural chain unless they say otherwise; changes in a name come on top.
# UniProt P67774: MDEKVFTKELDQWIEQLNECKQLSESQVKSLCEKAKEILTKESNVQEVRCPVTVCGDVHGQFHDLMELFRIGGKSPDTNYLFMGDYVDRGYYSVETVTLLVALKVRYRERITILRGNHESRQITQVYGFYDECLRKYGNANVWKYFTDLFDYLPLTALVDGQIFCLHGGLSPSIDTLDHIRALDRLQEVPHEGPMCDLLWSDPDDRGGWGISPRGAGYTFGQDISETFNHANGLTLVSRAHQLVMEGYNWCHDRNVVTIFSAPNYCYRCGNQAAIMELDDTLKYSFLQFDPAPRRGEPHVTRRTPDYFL
# These are yes or no findings as the source states them, for the method shown. Some results given as binding are weak or reduced against the parent protein; the word gives no strength.
# Molecular target: T1, PP2A regulatory subunit Bα (residues 1-447) (human) (UniProt P63151)
# T1 sequence: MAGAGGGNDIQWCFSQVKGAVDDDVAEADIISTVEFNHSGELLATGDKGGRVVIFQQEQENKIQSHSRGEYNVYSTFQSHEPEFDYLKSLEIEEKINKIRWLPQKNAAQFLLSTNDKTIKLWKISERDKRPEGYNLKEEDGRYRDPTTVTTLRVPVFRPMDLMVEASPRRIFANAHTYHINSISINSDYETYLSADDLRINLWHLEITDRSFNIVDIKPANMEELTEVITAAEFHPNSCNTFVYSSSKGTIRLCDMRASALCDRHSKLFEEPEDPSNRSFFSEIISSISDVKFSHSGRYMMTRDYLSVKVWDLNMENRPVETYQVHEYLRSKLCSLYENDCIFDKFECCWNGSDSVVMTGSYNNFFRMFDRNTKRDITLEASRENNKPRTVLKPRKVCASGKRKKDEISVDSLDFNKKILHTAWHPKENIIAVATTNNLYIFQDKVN
# Assay: in vitro holoenzyme formation (Aα, Bα, truncated C), data not shown
substance,measurement,value
carboxy-terminally truncated C subunit (from UniProt P67774 1-295) (enzyme),binding,binds
